Test results as given in article PMC10723793.
These are yes or no findings as the source states them, for the method shown. Binding seen in cells or lysates may run through a third protein. Some entries that bind do so weakly or less than the wild type. Tags and fused reporters may be left off the sequences shown.

Amino acid sequences for entries named in this document (tags omitted).
UniProt Q5VSL9: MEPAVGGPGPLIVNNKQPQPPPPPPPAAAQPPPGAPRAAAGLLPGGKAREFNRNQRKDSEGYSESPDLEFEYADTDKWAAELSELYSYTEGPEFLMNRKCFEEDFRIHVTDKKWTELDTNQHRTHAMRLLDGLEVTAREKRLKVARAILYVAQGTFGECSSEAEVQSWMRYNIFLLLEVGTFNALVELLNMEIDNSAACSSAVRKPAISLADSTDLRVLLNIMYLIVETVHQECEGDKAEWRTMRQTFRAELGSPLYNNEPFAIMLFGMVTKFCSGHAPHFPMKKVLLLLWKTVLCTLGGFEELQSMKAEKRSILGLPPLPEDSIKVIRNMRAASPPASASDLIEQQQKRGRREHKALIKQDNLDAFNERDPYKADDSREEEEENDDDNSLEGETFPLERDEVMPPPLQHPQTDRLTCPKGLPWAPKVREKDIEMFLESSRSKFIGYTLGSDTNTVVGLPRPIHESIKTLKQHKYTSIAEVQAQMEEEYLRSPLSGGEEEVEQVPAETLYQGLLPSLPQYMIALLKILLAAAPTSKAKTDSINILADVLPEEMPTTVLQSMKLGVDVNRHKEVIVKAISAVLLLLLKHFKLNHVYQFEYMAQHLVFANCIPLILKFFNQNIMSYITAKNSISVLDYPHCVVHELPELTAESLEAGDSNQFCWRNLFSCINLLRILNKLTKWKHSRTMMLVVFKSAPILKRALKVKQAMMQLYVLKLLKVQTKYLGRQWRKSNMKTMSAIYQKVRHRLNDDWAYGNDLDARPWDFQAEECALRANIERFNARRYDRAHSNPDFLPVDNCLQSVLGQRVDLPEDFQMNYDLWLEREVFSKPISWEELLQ

T1: FLAG-Trabid wild-type (human) (UniProt Q9UGI0)
T1 sequence: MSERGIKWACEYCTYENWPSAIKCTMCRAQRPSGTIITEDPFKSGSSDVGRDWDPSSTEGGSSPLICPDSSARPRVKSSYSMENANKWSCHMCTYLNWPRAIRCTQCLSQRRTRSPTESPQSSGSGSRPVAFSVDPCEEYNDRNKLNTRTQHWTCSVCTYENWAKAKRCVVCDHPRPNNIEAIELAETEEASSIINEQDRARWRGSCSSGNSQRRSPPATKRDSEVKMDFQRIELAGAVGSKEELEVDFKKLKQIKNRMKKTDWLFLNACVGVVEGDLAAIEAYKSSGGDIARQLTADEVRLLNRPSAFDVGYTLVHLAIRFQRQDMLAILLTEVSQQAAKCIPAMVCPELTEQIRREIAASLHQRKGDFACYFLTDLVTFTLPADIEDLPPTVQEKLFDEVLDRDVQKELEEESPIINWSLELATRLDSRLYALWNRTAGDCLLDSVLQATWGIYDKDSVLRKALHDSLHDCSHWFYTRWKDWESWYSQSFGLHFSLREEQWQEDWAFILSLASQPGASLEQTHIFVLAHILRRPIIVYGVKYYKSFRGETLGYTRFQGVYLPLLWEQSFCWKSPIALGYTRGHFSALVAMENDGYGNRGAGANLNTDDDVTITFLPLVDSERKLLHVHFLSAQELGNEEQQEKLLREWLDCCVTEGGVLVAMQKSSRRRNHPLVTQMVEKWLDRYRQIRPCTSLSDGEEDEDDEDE

T2: FLAG-Trabid C443S (human) (UniProt Q9UGI0)
T2 sequence: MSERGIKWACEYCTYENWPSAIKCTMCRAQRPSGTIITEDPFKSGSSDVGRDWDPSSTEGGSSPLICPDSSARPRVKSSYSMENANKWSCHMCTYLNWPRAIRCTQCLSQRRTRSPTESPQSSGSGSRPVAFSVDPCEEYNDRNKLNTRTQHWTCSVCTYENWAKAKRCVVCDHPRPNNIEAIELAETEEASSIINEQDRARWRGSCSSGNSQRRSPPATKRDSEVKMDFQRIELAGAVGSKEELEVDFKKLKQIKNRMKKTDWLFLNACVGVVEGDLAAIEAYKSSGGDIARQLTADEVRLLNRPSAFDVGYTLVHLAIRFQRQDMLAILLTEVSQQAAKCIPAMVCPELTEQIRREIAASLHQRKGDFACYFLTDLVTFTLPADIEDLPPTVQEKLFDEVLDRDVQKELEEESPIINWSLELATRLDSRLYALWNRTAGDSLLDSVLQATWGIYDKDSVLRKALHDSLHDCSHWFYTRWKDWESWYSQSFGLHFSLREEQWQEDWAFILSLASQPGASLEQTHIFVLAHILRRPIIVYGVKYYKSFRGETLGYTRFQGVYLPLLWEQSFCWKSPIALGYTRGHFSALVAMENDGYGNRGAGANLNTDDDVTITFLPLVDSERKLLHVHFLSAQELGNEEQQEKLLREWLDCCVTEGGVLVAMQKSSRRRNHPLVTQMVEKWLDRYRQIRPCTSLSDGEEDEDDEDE

T3: FLAG-Trabid R438W (human) (UniProt Q9UGI0)
T3 sequence: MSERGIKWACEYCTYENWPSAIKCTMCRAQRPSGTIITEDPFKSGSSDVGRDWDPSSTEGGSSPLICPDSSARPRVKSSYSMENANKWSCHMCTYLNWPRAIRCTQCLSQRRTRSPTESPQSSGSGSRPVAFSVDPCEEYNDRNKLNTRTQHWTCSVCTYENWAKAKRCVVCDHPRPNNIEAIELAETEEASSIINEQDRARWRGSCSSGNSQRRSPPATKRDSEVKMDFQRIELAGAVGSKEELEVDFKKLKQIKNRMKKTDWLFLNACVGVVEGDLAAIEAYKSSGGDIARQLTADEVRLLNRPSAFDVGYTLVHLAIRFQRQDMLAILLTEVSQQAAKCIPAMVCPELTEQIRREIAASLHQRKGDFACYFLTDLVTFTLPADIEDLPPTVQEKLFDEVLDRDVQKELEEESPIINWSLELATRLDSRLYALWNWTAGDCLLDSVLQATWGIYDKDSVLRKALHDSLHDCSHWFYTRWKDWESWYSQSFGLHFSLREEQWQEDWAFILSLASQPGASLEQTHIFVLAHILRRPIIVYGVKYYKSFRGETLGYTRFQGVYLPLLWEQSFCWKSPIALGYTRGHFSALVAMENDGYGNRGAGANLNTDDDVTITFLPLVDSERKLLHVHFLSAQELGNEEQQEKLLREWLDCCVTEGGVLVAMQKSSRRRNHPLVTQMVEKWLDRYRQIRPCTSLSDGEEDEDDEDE


Tests used:
Assay in all cases: co-IP; anti-FLAG M2 antibody and protein G sepharose on 1 mg lysate of transfected HEK293T cells (1% IGEPAL CA-630, 50 mM Tris-HCl pH 7.5, 120 mM NaCl, 1 mM EDTA), overnight at 4 °C; endogenous partners detected by Western blot
[1] = target: T1, FLAG-Trabid wild-type (human)
[2] = target: T2, FLAG-Trabid C443S (human)
[3] = target: T3, FLAG-Trabid R438W (human)

| binding [1] | binding [2] | binding [3] | Molecule |
| --- | --- | --- | --- |
| binds | binds | binds | STRIP1 (from UniProt Q5VSL9 1-837) |
| binds | binds | binds | Striatin3 (protein, UniProt Q13033 1-797) MDELAGGGGGGPGMAAPPRQQQGPGGNLGLSPGGNGAAGGGGPPASEGAGPAAGPELSRPQQYTIPGILHYIQHEWARFEMERAHWEVERAELQARIAFLQGERKGQENLKKDLVRRIKMLEYALKQERAKYHKLKYGTELNQGDLKMPTFESEETKDTEAPTAPQNSQLTWKQGRQLLRQYLQEVGYTDTILDVRSQRVRSLLGLSNSEPNGSVETKNLEQILNGGESPKQKGQEIKRSSGDVLETFNFLENADDSDEDEENDMIEGIPEGKDKHRMNKHKIGNEGLAADLTDDPDTEEALKEFDFLVTAEDGEGAGEARSSGDGTEWDKDDLSPTAEVWDVDQGLISKLKEQYKKERKGKKGVKRANRTKLYDMIADLGDDELPHIPSGIINQSRSASTRMTDHEGARAEEAEPITFPSGGGKSFIMGSDDVLLSVLGLGDLADLTVTNDADYSYDLPANKDAFRKTWNPKYTLRSHFDGVRALAFHPVEPVLVTASEDHTLKLWNLQKTVPAKKSASLDVEPIYTFRAHIGPVLSLAISSNGEQCFSGGIDATIQWWNMPSPSVDPYDTYEPNVLAGTLVGHTDAVWGLAYSGIKNQLLSCSADGTVRLWNPQEKLPCICTYNGDKKHGIPTSVDFIGCDPAHMVTSFNTGSAVIYDLETSQSLVILSSQVDSGLQSNNHINRVVSHPTLPVTITAHEDRHIKFFDNKTGKMIHSMVAHLDAVTSLAVDPNGIYLMSGSHDCSIRLWNLDSKTCVQEITAHRKKLDESIYDVAFHSSKAYIASAGADALAKVFV |
